Results: PubChem BioAssay AID493014 (National Center for Advancing Translational Sciences (NCATS), 2011)
The list shows a part of the results. Shown are side measurements of this screen, not its main read-out; they come without a call. Compounds called inactive in the main read-out are mostly missing here. Potencies come from curve fits of mixed quality, noted in brackets.

Test: qHTS Assay to Find Inhibitors of Chronic Active B-Cell Receptor Signaling
Conditions: ABC-DLBCL IkBa-CBG/CBR reporter, luminescence ratio (green luciferase fused to IkBa over red control in TMD8 lymphoma cells), 4 h
In short: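 TMD8 human ABC-DLBCL cells with doxycycline-inducible IκBα–green luciferase fusion and unfused red luciferase, in 0.5% FBS medium; compounds up to 46 uM, 4 h at 37C. Green/red luminescence ratio, filter-overlap corrected, fitted to concentration-response curves.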

[1] = measured here: CBR red luminescence, cell number
[2] = measured here: IkBa-CBG green luminescence

Structure (SMILES)	AC50 [1]	AC50 [2]
Cc1sc2nc3n(c(=O)c2c1C)CCCCC3	5.8 µM [rising, full curve, poor fit]	
CN1C(=O)c2cccc(NC(=O)CCc3ccccc3)c2C1=O	32.6 µM [falling, single point]	
CC(=O)Nc1ccc(NC(=O)c2sc(-c3ccccc3)nc2C)cc1	14.1 µM [falling, single point]	3.16 µM [rising, full curve, poor fit]
Clc1ccc(-c2cc(-c3nnc4n3CCCCC4)c3ccccc3n2)cc1	14.6 µM [rising, partial curve, poor fit]	
C#CCOc1c(Cl)cc(/C=N/NC(N)=S)cc1OCC	10.3 µM [rising, partial curve, poor fit]	
N#Cc1c(N)nc2c(c1N)CC(=O)N2c1ccccc1-c1ccccc1		14.1 µM [falling, partial curve, poor fit]
Cc1ccccc1OCC(=O)N/N=C/c1cc2ccccc2nc1Cl	0.891 µM [rising, full curve, poor fit]	
Nc1ccc(C(=O)N/N=C/c2ccc(N3CCOCC3)s2)cc1	16.4 µM [falling, partial curve]	
O=C(NCCc1c[nH]c2ccccc12)C(=O)c1c[nH]c2ccccc12	6.31 µM [falling, partial curve]	
O=C(c1cccc2ccccc12)C1CCCN(C(=O)C2CCOCC2)C1 (stereo not drawn)	14.1 µM [rising, partial curve, poor fit]	
Cc1nnc(N/N=C/c2c[nH]c3ccccc23)[nH]c1=O	35.5 µM [falling, partial curve, poor fit]	
CCCCCC(=O)NNC(=S)NC(=O)c1cccc([N+](=O)[O-])c1	29.1 µM [rising, single point]	
COc1ccccc1C(=O)Nc1ccccc1N1CCN(S(C)(=O)=O)CC1	18.4 µM [falling, partial curve]	
O=C(NCc1ccc(F)cc1)c1cccc2c1C(=O)N(Cc1cccnc1)C2	15.8 µM [falling, single point]	
FC(F)(F)c1ccc(Sc2n[nH]c(C(F)(F)F)n2)nc1	15.8 µM [rising, single point]	
Cn1ccnc1SCc1cc(=O)[nH]c2ccccc12	3.66 µM [rising, partial curve]	
O=C(Nc1ccc2c(c1)OCO2)c1noc2c1CCCCC2	10 µM [falling, partial curve]	
CSc1ccccc1NC(=O)c1cccs1	35.5 µM [rising, single point]	
O=C(CSc1ccc2ccccc2n1)c1ccccc1	12.6 µM [falling, single point]	
O=C(CN1C(=O)NC(Cc2ccccc2)C1=O)Nc1ccccc1 (stereo not drawn)	29.1 µM [falling, single point]	
CCOc1ccc(Br)cc1C(=O)N/N=C/c1ccccn1	35.5 µM [falling, single point]	
O=S(=O)(NCC1CN(S(=O)(=O)c2ccc3c(c2)OCCO3)C1)c1c(F)cccc1F	7.31 µM [rising, partial curve, poor fit]	

Structure (SMILES)	AC50 [1]	AC50 [2]
COc1cc(/C=C2\C(=O)N(C)C(=S)N2C)ccc1O	1.16 µM [falling, single point]	
O=C(CSc1ccccc1)NCCc1ccccc1	12.6 µM [falling, single point]	
Cc1ccc2oc(C(=O)N3CCCCCC3)c(C)c2c1	8.91 µM [rising, partial curve, poor fit]	
O=C(C1Cc2ccccc2CN1C(=O)c1ccco1)N1CCN(c2ccccc2)CC1 (stereo not drawn)	20.6 µM [falling, single point]	
Cc1csc(NC(=O)CCc2ccc(S(=O)(=O)N3CCOCC3)cc2)n1	23.1 µM [falling, single point]	
CN(Cc1ccccc1)c1ccc(C(CC(N)=O)NC(=O)c2ccc(Br)cc2)cc1[N+](=O)[O-] (stereo not drawn)	28.2 µM [falling, single point]	
Cc1ccc(C(CNS(=O)(=O)c2ccc(F)cc2C)N2CCN(C)CC2)cc1 (stereo not drawn)	29.1 µM [falling, single point]	
COCCn1c(C)cc(/C=C2/NC(=O)N(c3ccc(Cl)cc3)C2=O)c1C	32.6 µM [falling, partial curve, poor fit]	
COc1ccccc1OCCC(=O)OCC(=O)NC(=O)NC(C)(C)C	14.1 µM [falling, partial curve, poor fit]	
Cc1ccc(CNC(=O)CSc2c3c(nc4cc(Cl)ccc24)CCCC3)o1	29.1 µM [falling, single point]	
Cc1cc(NC(=O)c2ccc(-c3ccc(F)c(Cl)c3)o2)no1	2 µM [rising, partial curve, poor fit]	
COc1cc(C(=O)NNC(=S)Nc2ccc(S(N)(=O)=O)cc2)cc(OC)c1OC	31.6 µM [rising, single point]	15.8 µM [falling, partial curve]
Cc1ccc(/C=N/Nc2ncnc3nc[nH]c23)cc1	12.6 µM [falling, partial curve, poor fit]	
CCc1ccc2[nH]c3nc(SCc4nnc(-c5ccc(C)cc5)o4)nnc3c2c1	2.59 µM [rising, full curve]	
Fc1ccc(Nc2ncnc3sc4c(c23)CCC4)cc1F	13 µM [rising, partial curve]	
COc1ccccc1C(=O)NCCc1nc2ccccc2n1C	10 µM [falling, partial curve, poor fit]	
O=C(O)COc1ccc(/C=N/NC(=O)c2ccccc2Br)cc1	3.98 µM [falling, partial curve]	
Cc1cccc(C(=O)N/N=C/C(C)Cc2ccc3c(c2)OCO3)c1 (stereo not drawn)	16.4 µM [falling, partial curve, poor fit]	
Cc1ccc(NC(=O)CSc2nnc(CNC(=O)c3ccco3)n2C)cc1C	2.06 µM [rising, full curve, poor fit]	
Nc1n[nH]c(N)c1N=Nc1ccc(Cl)cc1Cl	6.51 µM [rising, full curve, poor fit]	
O=C(Nc1ccccc1Cl)/C(Cl)=C(\Cl)S(=O)c1ccccc1 (stereo not drawn)	1.26 µM [falling, full curve, poor fit]	3.55 µM [rising, full curve, poor fit]
Cc1ccc(-n2ncc3c(=O)n(CC(=O)N4CCN(c5ccccc5)CC4)cnc32)cc1	3.16 µM [rising, partial curve]	

Part of the list above in another layout.

| Structure (SMILES) | AC50 [1] | AC50 [2] |
| --- | --- | --- |
| COc1cc(/C=C2\C(=O)N(C)C(=S)N2C)ccc1O | 1.16 µM [falling, single point] |  |
| O=C(CSc1ccccc1)NCCc1ccccc1 | 12.6 µM [falling, single point] |  |
| O=C(C1Cc2ccccc2CN1C(=O)c1ccco1)N1CCN(c2ccccc2)CC1 (stereo not drawn) | 20.6 µM [falling, single point] |  |
| Cc1csc(NC(=O)CCc2ccc(S(=O)(=O)N3CCOCC3)cc2)n1 | 23.1 µM [falling, single point] |  |
| CN(Cc1ccccc1)c1ccc(C(CC(N)=O)NC(=O)c2ccc(Br)cc2)cc1[N+](=O)[O-] (stereo not drawn) | 28.2 µM [falling, single point] |  |
| Cc1ccc(C(CNS(=O)(=O)c2ccc(F)cc2C)N2CCN(C)CC2)cc1 (stereo not drawn) | 29.1 µM [falling, single point] |  |
| COCCn1c(C)cc(/C=C2/NC(=O)N(c3ccc(Cl)cc3)C2=O)c1C | 32.6 µM [falling, partial curve, poor fit] |  |
| COc1ccccc1OCCC(=O)OCC(=O)NC(=O)NC(C)(C)C | 14.1 µM [falling, partial curve, poor fit] |  |
| Cc1ccc(CNC(=O)CSc2c3c(nc4cc(Cl)ccc24)CCCC3)o1 | 29.1 µM [falling, single point] |  |
| Cc1cc(NC(=O)c2ccc(-c3ccc(F)c(Cl)c3)o2)no1 | 2 µM [rising, partial curve, poor fit] |  |
| COc1cc(C(=O)NNC(=S)Nc2ccc(S(N)(=O)=O)cc2)cc(OC)c1OC | 31.6 µM [rising, single point] | 15.8 µM [falling, partial curve] |
| Cc1ccc(/C=N/Nc2ncnc3nc[nH]c23)cc1 | 12.6 µM [falling, partial curve, poor fit] |  |
| COc1ccccc1C(=O)NCCc1nc2ccccc2n1C | 10 µM [falling, partial curve, poor fit] |  |
| O=C(O)COc1ccc(/C=N/NC(=O)c2ccccc2Br)cc1 | 3.98 µM [falling, partial curve] |  |
| Cc1cccc(C(=O)N/N=C/C(C)Cc2ccc3c(c2)OCO3)c1 (stereo not drawn) | 16.4 µM [falling, partial curve, poor fit] |  |
| Cc1ccc(NC(=O)CSc2nnc(CNC(=O)c3ccco3)n2C)cc1C | 2.06 µM [rising, full curve, poor fit] |  |
| Nc1n[nH]c(N)c1N=Nc1ccc(Cl)cc1Cl | 6.51 µM [rising, full curve, poor fit] |  |
| O=C(Nc1ccccc1Cl)/C(Cl)=C(\Cl)S(=O)c1ccccc1 (stereo not drawn) | 1.26 µM [falling, full curve, poor fit] | 3.55 µM [rising, full curve, poor fit] |
| Cc1ccc(-n2ncc3c(=O)n(CC(=O)N4CCN(c5ccccc5)CC4)cnc32)cc1 | 3.16 µM [rising, partial curve] |  |

Remaining list, next part:

Structure (SMILES)	AC50 [1]	AC50 [2]
Cc1cc(CNC(=O)c2cc(COc3c(F)cccc3F)on2)nn1C	0.794 µM [rising, full curve, poor fit]	
CC(C)(C)c1ccc(-c2noc(CCC(=O)Nc3cccnc3)n2)cc1	7.08 µM [falling, full curve, poor fit]	
Clc1cccc(-c2cc3nc4c(c(N5CCOCC5)n3n2)CCCC4)c1	0.164 µM [rising, full curve, poor fit]	
CCOC(=O)C1=C(C)N(c2ccc(OC)cc2)C(=O)/C1=C\c1cccs1	1.64 µM [rising, full curve, poor fit]	
CC12CCC(C(=O)Nc3cccnc3)(CC1=O)C2(C)C (stereo not drawn)	5.8 µM [rising, full curve, poor fit]	
O=C(CCl)Nc1cccc(CP(=O)(c2ccccc2)c2ccccc2)c1	5.62 µM [falling, full curve, poor fit]	
CS(=O)c1ccccc1-c1nc(-c2ccc(Cl)cc2)no1 (stereo not drawn)	12.6 µM [rising, partial curve, poor fit]	
COC(=O)c1ccc(CSc2nc3scc(-c4cccs4)c3c(=O)[nH]2)o1	35.5 µM [falling, single point]	
COc1ccc(-c2nc(SC(CC(=O)NCc3ccccc3)c3ccc(OC)c(OC)c3)n[nH]2)cc1 (stereo not drawn)	20.6 µM [rising, single point]	
CC(C)OC(=O)Cn1nc(C(F)(F)F)c2c1CCCC2	35.5 µM [rising, partial curve, poor fit]	
CC(C)c1nnc(NC(=O)CCC(=O)Nc2ccc(F)cc2)s1	15.8 µM [falling, partial curve, poor fit]	
O=C(NCc1cc([N+](=O)[O-])ccc1O)c1cccnc1Sc1ccccc1	8.91 µM [falling, partial curve]	
Cc1nc2ccc(NC(=O)NC(=O)c3c(Cl)cccc3Cl)cc2o1	3.55 µM [rising, single point]	
CC(C)CCNC(=O)c1ccc2c(Cl)c3c(nc2c1)CCC3	17.8 µM [falling, single point]	
OCCNCCCCOc1ccc(OCc2ccccc2)cc1	6.51 µM [rising, single point]	
CC(=O)Nc1cccc(/C(C)=N/NC(=O)c2ccc3c(c2)OCO3)c1	11.2 µM [falling, partial curve]	
CC(=O)Cc1nsc(NC(=O)c2ccc(-c3ccccc3Cl)o2)n1	10.3 µM [falling, partial curve]	
O=c1c2sc(-c3ccccc3)cc2nc2n1CCCCC2	3.16 µM [falling, partial curve, poor fit]	
COc1ccc(OC2C(=O)N(Cc3ccc4c(c3)OCO4)C2c2cccs2)cc1 (stereo not drawn)	35.5 µM [falling, single point]	
O=C(CCn1cccc1)N1CCc2ccccc21	0.461 µM [falling, full curve, poor fit]	
Cn1sc(NC(=O)c2cccc(Cl)c2)nc1=O	11.2 µM [falling, partial curve, poor fit]	
